# Part of at least one peptide drawing is inferred or uncertain, most often the ends. At least one compound was matched to its structure with a doubt left.
# Tested on: translocation of FL-NLS-BSA into nuclei of digitonin-permeabilized HeLa cells
# Experiment: Nuclear import estimated by fluorescence microscopy
# Assay type: cell-based
# Settings: crude peptides of the second library
# Description: HeLa cells were cultivated on 10 mm coverslips to subconfluent density and then permeabilized with digitonin as described before (Broder, et al. ibid). Linear peptides bearing the NLS signal of the SV40 large T-antigen were covalently attached to fluorescently labeled (with FITC) BSA molecules (Goldfarb, et al. (1986) Nature 322, 641-644) and translocation of the resulting fluorescently labeled-NLS-BSA molecules (FL-NLS-BSA) into nuclei of digitonin-permeabilized HeLa cells was followed by fluorescent microscopy observations, as described (Broder, et al. ibid).
smiles,measurement,value
NCCCC[C@H](NC(=O)CN1CCCCCCNC(=O)CNC(=O)CCCCC(=O)N[C@@H](CCCCN)C(=O)N[C@@H](CCCCN)C(=O)N[C@@H](CCCCN)C1=O)C(N)=O [peptide 19.4],inhibitory activity by fluorescent microscopy,inhibitory
